For 1 substance, binding results are on record in PMC9123298.

The chains behind the UniProt entries cited, without tags or fusion partners. Where a name states a change or a piece, a line headed by the entry shows the natural chain unless it says otherwise.
UniProt A0A3B6A278: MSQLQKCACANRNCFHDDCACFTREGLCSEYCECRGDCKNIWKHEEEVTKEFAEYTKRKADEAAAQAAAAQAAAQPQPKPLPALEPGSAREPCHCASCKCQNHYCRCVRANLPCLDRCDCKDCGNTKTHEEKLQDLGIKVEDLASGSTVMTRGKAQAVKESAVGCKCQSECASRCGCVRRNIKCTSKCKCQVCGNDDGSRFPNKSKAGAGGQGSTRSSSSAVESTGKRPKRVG

No constants are given. Whether binding was seen depends on the method and setting. Binding seen in cells or lysates may run through a third protein. Binding can be weak; no strength is given.

The experiment addresses TaCPP11-3B fused to the C-terminal part of luciferase (LCI construct) (Triticum aestivum L. (wheat)). The experiment can be described thus: split reporter; firefly luciferase complementation imaging (LCI) in co-infiltrated tobacco leaves; LUC activity read 60 h after co-infiltration.

For the substance “TaCPP5-1D fused to the N-terminal part of luciferase (LCI construct) (from UniProt A0A3B6A278)”, the binding result is “binds”.
